Five molecules from PMC10921666 can be followed below.

The chains behind the UniProt entries cited, without tags or fusion partners. Residues count along the entry.
UniProt Q9NZQ7, residues 19-290: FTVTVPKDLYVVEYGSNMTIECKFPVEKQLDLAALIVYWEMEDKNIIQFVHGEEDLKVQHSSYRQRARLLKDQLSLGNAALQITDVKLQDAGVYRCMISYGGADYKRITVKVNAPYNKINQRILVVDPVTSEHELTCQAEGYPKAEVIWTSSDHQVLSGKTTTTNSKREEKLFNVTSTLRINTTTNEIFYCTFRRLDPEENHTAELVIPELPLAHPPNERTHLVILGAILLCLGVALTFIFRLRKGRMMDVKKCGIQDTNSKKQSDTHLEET
UniProt O43791: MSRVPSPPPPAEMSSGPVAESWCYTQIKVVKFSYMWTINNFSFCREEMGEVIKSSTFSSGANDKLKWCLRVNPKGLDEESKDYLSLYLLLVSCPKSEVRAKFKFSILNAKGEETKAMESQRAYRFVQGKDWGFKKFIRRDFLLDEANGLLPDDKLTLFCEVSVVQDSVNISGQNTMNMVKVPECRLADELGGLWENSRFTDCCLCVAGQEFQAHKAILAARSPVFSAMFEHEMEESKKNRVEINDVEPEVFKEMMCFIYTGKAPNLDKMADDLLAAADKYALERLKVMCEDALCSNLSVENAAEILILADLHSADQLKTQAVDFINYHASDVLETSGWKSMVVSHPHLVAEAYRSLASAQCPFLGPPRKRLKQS

One assay has as its target T1, Myc-TMEM160 (UniProt Q9NX00).
T1 sequence: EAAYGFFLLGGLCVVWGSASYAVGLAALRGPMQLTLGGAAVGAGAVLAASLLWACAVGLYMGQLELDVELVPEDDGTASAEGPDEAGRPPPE
The experiment in a line: co-IP; exogenous Myc-TMEM160 and Flag-PD-L1 in HEK-293T and SW480 cells; Protein A/G immunoprecipitation kit, western blot. On the technique in general: Immunoblotting shows a protein as a band on a membrane.

Assay [1] deals with T2, TMEM160 (endogenous) (human (endogenous in DLD1 and HCT116)) (UniProt Q9NX00).
T2 sequence: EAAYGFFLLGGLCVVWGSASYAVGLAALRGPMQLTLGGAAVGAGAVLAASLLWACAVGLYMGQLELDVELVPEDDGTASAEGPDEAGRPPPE
The experiment in a line: co-IP; endogenous proteins in DLD1 and HCT116 cells; Protein A/G immunoprecipitation kit, western blot.

Assay [2] concerns the target PD-L1 (competition co-IP in DLD1 and SW480 cells) (UniProt Q9NZQ7). The experiment in a line: co-IP; co-IP of SPOP and PD-L1 in DLD1 and SW480 cells with TMEM160 overexpressed.
The target is the same in assay [3]. The assay is described as above. This is another data set of the same source.

Read-outs that look alike come from different tables or passages of the source. These are yes or no findings as the source states them, for the method shown. Binding seen in cells or lysates may run through a third protein. Some results given as binding are weak or reduced against the parent protein; the word gives no strength. For some assays here: Where a sequence is shown, tags or fusion partners need not be part of it.

Take Flag-PD-L1 (from UniProt Q9NZQ7 19-290): the binding result with Myc-TMEM160 is reported as “binds”.
As for “PD-L1 (endogenous) (from UniProt Q9NZQ7 19-290)”, the binding entry in assay [1] is given as “binds”.
Turning to “SPOP (competition co-IP in DLD1 and SW480 cells) (from UniProt O43791 1-374)”, the binding result in assay [2] is “binds”.
As to “SPOP (endogenous) (from UniProt O43791 1-374)”, in assay [1], the binding result was “binds”.

B1: Myc-TMEM160 (protein, UniProt Q9NX00 97-188)
chain: EAAYGFFLLGGLCVVWGSASYAVGLAALRGPMQLTLGGAAVGAGAVLAASLLWACAVGLYMGQLELDVELVPEDDGTASAEGPDEAGRPPPE
As for B1, the binding result in assay [3] is given as “binds”.
